Sequences and labels used below:
B1: progesterone receptor membrane component 1, Myc-tagged wild type (PGRMC1-myc) [not stated] / two pore channel TPC1, GFP-tagged (TPC1-GFP) [human] (parent complex)
chain 1: MAAEDVVATGADPSDLESGGLLHEIFTSPLNLLLLGLCIFLLYKIVRGDQPAASGDSDDDEPPPLPRLKRRDFTPAELRRFDGVQDPRILMAINGKVFDVTKGRKFYGPEGPYGVFAGRDASRGLATFCLDKEALKDEYDDLSDLTAAQQETLSDWESQFTFKYHHVGKLLKEGEEPTVYSDEEEPKDESARKND
chain 2: not shown

In the assay the parent is B1. Put plainly: co-immunoprecipitation (TPC1-GFP IP, anti-myc Western blot densitometry); U2OS cells co-expressing PGRMC1-myc constructs and TPC1-GFP; n = 2; parent: 100; read off a plot.
As to chain 1 S143P, the percent of parent is roughly 98 % ctrl.

As for chain 1 V167P, the percent of parent was roughly 110 % ctrl. chain 1 Q159P: the percent of parent is roughly 5 % ctrl. Next, chain 1 Q149P: roughly 18 % ctrl.
